{
  "sequences": {"note": "Sequences of proteins named here, by UniProt entry; tags and fusion partners are left off.", "UniProt P61244, whole entry": "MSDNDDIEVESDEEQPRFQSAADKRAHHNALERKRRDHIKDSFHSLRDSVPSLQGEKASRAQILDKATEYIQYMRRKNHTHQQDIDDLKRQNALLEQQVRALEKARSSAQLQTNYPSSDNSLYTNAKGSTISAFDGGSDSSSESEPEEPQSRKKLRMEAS"},
  "source": "patent US20070203188",
  "target": "Max(L) (Homo sapiens) (UniProt P61244)",
  "assay": "EMSA",
  "settings": "homodimer DNA binding unaffected by compounds; data not shown, same oligo presumed; purified recombinant protein; protein details: His6 (pQE-10); label: 5'-HEX on one strand",
  "note": "Construct, isoform or probe ends are uncertain for at least one entry.",
  "data": [
    {"sequence": "CACCCGGTCACGTGGCCTACAC (double strand) [E-box 22-mer duplex]", "values": [
      {"measurement": "binding result", "value": "binds"}
    ]}
  ]
}
